# Measurements published in PMC8384837.
# Substitutions are numbered along the chain they refer to. Some of the results follow. At the low end of the ranking the order means little.
# What was measured:
# Conditions in all cases: yeast three-hybrid, YBZ-1, SC-Leu-His + 0.5 mM 3-AT, 4 days
# [1] = target: T1, PUM1 PUF domain R2-CFP N899C + Y900F + Q903P (UniProt Q14671)
# T1 sequence: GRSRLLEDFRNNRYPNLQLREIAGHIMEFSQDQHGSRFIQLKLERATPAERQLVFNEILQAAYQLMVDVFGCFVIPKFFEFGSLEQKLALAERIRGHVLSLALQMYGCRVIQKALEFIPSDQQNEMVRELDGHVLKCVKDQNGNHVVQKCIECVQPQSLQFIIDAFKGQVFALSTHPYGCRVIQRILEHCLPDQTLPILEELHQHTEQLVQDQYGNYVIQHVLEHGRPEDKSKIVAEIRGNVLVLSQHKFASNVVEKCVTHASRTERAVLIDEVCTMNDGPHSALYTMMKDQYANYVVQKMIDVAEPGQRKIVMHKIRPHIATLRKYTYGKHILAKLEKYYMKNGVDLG
# [2] = target: T2, PUM1 PUF domain R2-DRQ N899D + Y900R (UniProt Q14671)
# T2 sequence: T1 sequence with C72D, F73R, P76Q
# [3] = target: T3, PUM1 PUF domain R2-EWG N899E + Y900W + Q903G (UniProt Q14671)
# T3 sequence: T1 sequence with C72E, F73W, P76G
# [4] = target: T4, PUM1 PUF domain R2-KRG N899K + Y900R + Q903G (UniProt Q14671)
# T4 sequence: T1 sequence with C72K, F73R, P76G
# [5] = target: T5, PUM1 PUF domain R2-SWG N899S + Y900W + Q903G (UniProt Q14671)
# T5 sequence: T1 sequence with C72S, F73W, P76G
# [6] = target: T6, PUM1 PUF domain R5-RDK C1007R + R1008D + Q1011K (UniProt Q14671)
# T6 sequence: T1 sequence with C72N, F73Y, P76Q, C180R, R181D, Q184K
# [7] = target: T7, PUM1 PUF domain R5-SEQ C1007S + R1008E (UniProt Q14671)
# T7 sequence: T1 sequence with C72N, F73Y, P76Q, C180S, R181E
# [8] = target: T8, PUM1 PUF domain R5-SER C1007S + R1008E + Q1011R (UniProt Q14671)
# T8 sequence: T1 sequence with C72N, F73Y, P76Q, C180S, R181E, Q184R
# [9] = target: T9, PUM1 PUF domain R5-SNG C1007S + R1008N + Q1011G (UniProt Q14671)
# T9 sequence: T1 sequence with C72N, F73Y, P76Q, C180S, R181N, Q184G
# [10] = target: T10, PUM1 PUF domain R5-SPR C1007S + R1008P + Q1011R (UniProt Q14671)
# T10 sequence: T1 sequence with C72N, F73Y, P76Q, C180S, R181P, Q184R
# [11] = target: T11, PUM1 PUF domain R5-WGF C1007W + R1008G + Q1011F (UniProt Q14671)
# T11 sequence: T1 sequence with C72N, F73Y, P76Q, C180W, R181G, Q184F
# [12] = target: T12, PUM1 PUF domain R6-AWE N1043A + Y1044W + Q1047E (UniProt Q14671)
# T12 sequence: T1 sequence with C72N, F73Y, P76Q, N216A, Y217W, Q220E
# [13] = target: T13, PUM1 PUF domain R6-SWE N1043S + Y1044W + Q1047E (UniProt Q14671)
# T13 sequence: T1 sequence with C72N, F73Y, P76Q, N216S, Y217W, Q220E
# [14] = target: T14, PUM1 PUF domain R6-VYH N1043V + Q1047H (UniProt Q14671)
# T14 sequence: T1 sequence with C72N, F73Y, P76Q, N216V, Q220H
# [15] = target: T15, PUM1 PUF domain R6-YRI N1043Y + Y1044R + Q1047I (UniProt Q14671)
# T15 sequence: T1 sequence with C72N, F73Y, P76Q, N216Y, Y217R, Q220I
# [16] = target: T16, PUM1 PUF domain R6-YRS N1043Y + Y1044R + Q1047S (UniProt Q14671)
# T16 sequence: T1 sequence with C72N, F73Y, P76Q, N216Y, Y217R, Q220S
# [17] = target: T17, PUM1 PUF domain R7-IMR S1079I + N1080M + E1083R (UniProt Q14671)
# T17 sequence: T1 sequence with C72N, F73Y, P76Q, S252I, N253M, E256R
# [18] = target: T18, PUM1 PUF domain R8-KQR N1122K + Y1123Q + Q1126R (UniProt Q14671)
# T18 sequence: T1 sequence with C72N, F73Y, P76Q, N295K, Y296Q, Q299R
# [19] = target: T19, PUM1 PUF domain R8-KRY N1122K + Y1123R + Q1126Y (UniProt Q14671)
# T19 sequence: T1 sequence with C72N, F73Y, P76Q, N295K, Y296R, Q299Y
# [20] = target: T20, PUM1 PUF domain R8-MHP N1122M + Y1123H + Q1126P (UniProt Q14671)
# T20 sequence: T1 sequence with C72N, F73Y, P76Q, N295M, Y296H, Q299P
sequence,measurement,setting,value
GGCUAGAACUAGUGGAUCCCCCGGCGCCCGGCGGCUCGAGCCCGGGUAAGUGUAAAUAGUCUGCAUGCCGCCGGGCGCCAUGCCUGCAGGUCGACUCUAGAAAACAUG,binding signal (log2 enrichment (interaction score)),[1],-7.64
same,binding signal (log2 enrichment (interaction score)),[2],-6.31
same,binding signal (log2 enrichment (interaction score)),[3],-7.1
same,binding signal (log2 enrichment (interaction score)),[4],-7.33
same,binding signal (log2 enrichment (interaction score)),[5],-5.83
same,binding signal (log2 enrichment (interaction score)),[6],-5.95
same,binding signal (log2 enrichment (interaction score)),[7],< -5.67
same,binding signal (log2 enrichment (interaction score)),[8],< -9.16
same,binding signal (log2 enrichment (interaction score)),[9],< -7.79
same,binding signal (log2 enrichment (interaction score)),[10],< -6
same,binding signal (log2 enrichment (interaction score)),[11],< -7.07
same,binding signal (log2 enrichment (interaction score)),[12],< -5.96
same,binding signal (log2 enrichment (interaction score)),[13],-5.19
same,binding signal (log2 enrichment (interaction score)),[14],< -6.93
same,binding signal (log2 enrichment (interaction score)),[15],-6.06
same,binding signal (log2 enrichment (interaction score)),[16],-6.97
same,binding signal (log2 enrichment (interaction score)),[17],-6.68
same,binding signal (log2 enrichment (interaction score)),[18],< -6.78
same,binding signal (log2 enrichment (interaction score)),[19],< -5.98
same,binding signal (log2 enrichment (interaction score)),[20],< -6.11

# Random excerpt: 2 entries already listed, in no set order.
sequence,measurement,setting,value
GGCUAGAACUAGUGGAUCCCCCGGCGCCCGGCGGCUCGAGCCCGGGUAAGUGUAAAUAGUCUGCAUGCCGCCGGGCGCCAUGCCUGCAGGUCGACUCUAGAAAACAUG,binding signal (log2 enrichment (interaction score)),[14],< -6.93
same,binding signal (log2 enrichment (interaction score)),[4],-7.33
